Reference: patent US20100015130A1

B1: GST-tagged mouse DISC1 fragment 1-220aa (protein, UniProt Q811T9 1-220, looked up, not shown: a dimerising Fc or GST)
chain: MQGGGPRGAPIHSPSHGADSGHGLPPAVAPQRRRLTRRPGYMRSTAGSGIGFLSPAVGMPHPSSAGLTGQQSQHSQSKAGQCGLDPGSHCQASLVGKPFLKSSLVPAVASEGHLHPAQRSMRKRPVHFAVHSKNDSRQSERLTGSFKPGDSGFWQELLSSDSFKSLAPSLDAPWNKGSRGLKTVKPLASPALNGPADIASLPGFQDTFTSSFSFIQLSLG
B2: GST-tagged mouse DISC1 fragment 356-595aa (protein, UniProt Q811T9 356-595, looked up, not shown: a dimerising Fc or GST)
chain: LKLQKCQEKVVEDGDYDTAETLRQRLEELEQEKGRLSWALPSQQPALRSFLGYLAAQIQVALHGATQRAGSDDPEAPLEGQLRTTAQDSLPASITRRDWLIREKQRLQKEIEALQARMSALEAKEKRLSQELEEQEVLLRWPGCDLMALVAQMSPGQLQEVSKALGETLTSANQAPFQVEPPETLRSLRERTKSLNLAVRELTAQVCSGEKLCSSLRRRLSDLDTRLPALLEAKMLALSG

What was measured:
[1] = target: GSK3β as used in the surface plasmon resonance (SPR) binding assays (Homo sapiens (Human)); test: SPR
[2] = target: GSK3β as used in the surface plasmon resonance (SPR) binding assays (Homo sapiens (Human)); test: SPR scan, FIG. 16A
[3] = target: GSK3β as used in the surface plasmon resonance (SPR) binding assays (Homo sapiens (Human)); test: SPR, FIG. 18
[4] = target: GSK3β as used in the surface plasmon resonance (SPR) binding assays (Homo sapiens (Human)); test: SPR of overlapping 15-mers
[5] = target: His-GSK3β (purified recombinant His-tagged GSK3β, Sigma-Aldrich) (Homo sapiens (Human)); test: GST pull-down, FIG. 4f
[6] = target: His-GSK3β (purified recombinant His-tagged GSK3β, Sigma-Aldrich) (Homo sapiens (Human)); test: in vitro binding assay (GST pull-down)
[7] = target: His-GSK3β (purified recombinant His-tagged GSK3β, Sigma-Aldrich) (Homo sapiens (Human)); test: GST pull-down with purified His-GSK3β, Western blot

Binder | binding [1] | binding [2] | binding [5] | binding [6] | binding [7] | also measured
GYMRSTAGSGIGFLSPAVGMPHPSSAGLTGQQSQHSQS [Mouse DISC1 peptide 1 (40-78aa)] | binds | binds | – | – | – | –
SFSFIQLSLGAAGER [Murine DISC1 peptide 3 (15-mer, mDISC1 amino acids 211 to 225)] | – | – | – | – | – | binding [3]: binds; binding [4]: binds
PADIASLPGFQDTFTSSFSFIQLSLGAAGERGEAEGCLPSREAE [Mouse DISC1 peptide 2 (195-238aa)] | binds | binds | – | – | – | –
B1 | – | – | binds | binds | binds | –
B2 | – | – | binds | binds | binds | –

Results are given in words; binding and its absence hold for the method and conditions named. Binding calls can cover weak binding; strength is not graded here. For part of these data: In cells and extracts the contact can be indirect. For part of these data: Where a sequence is shown, tags or fusion partners need not be part of it.
